Experiments:
tex.loxP.EG cells = assay: TAT-Cre mediated recombination of lox-stop-lox eGFP reporter, flow cytometry of live cells; assay type: cell-based, murine
mammalian cells = assay: TAT-Cre transduction efficiency and cytotoxicity with endosomal release agents (summary statement); assay type: cell-based

In the case of “GLFGAIAGFIENGWEGMIDGGRKKRRQRRR [HA2-TAT]”, the “effect of peptide on TAT-Cre recombination (in words)” value (tex.loxP.EG cells) is reported as “efficiency of TAT-Cre recombination is enhanced”, the “increase in recombination, TAT-Cre in combination with peptide” value (tex.loxP.EG cells) is reported as over 10 fold and the cytotoxicity (mammalian cells) is reported as “absence of cytotoxicity”. The “effect on transduction efficiency of TAT-Cre” value (mammalian cells) was “greater than ten-fold”.
